Out of some 6,900 compounds screened, fewer than 10 were called active. Calls come from the whole dose curve; as a rule, active = well fitted curve in the direction sought with a large enough effect; inconclusive = small, poorly fitted or top-dose-only effect, or another doubt; inactive = no such curve, though single readings can be large or run the other way. The list shows a part of the results.
The molecules below were run against Metallo-beta-lactamase type 2 (Klebsiella pneumoniae) (UniProt C7C422) (assay: qHTS to identify inhibitors of the New Delhi Metallo-beta-lactamase (NDM): primary screen against the NCATS Gemini Collection). Details: NDM-1 enzyme, meropenem hydrolysis, absorbance 300 nm; at 38.4 µM (top of the series) unless noted.
Outline: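 Meropenem hydrolysis (50 uM final) by 2 nM NDM-1 read as 300 nm absorbance after 30 min, following >30 min compound–enzyme preincubation in HEPES pH 7.0 with 1 uM ZnSO4 and 0.01% Tween20.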
Note: % of control where 0% means no effect.

Amino acid sequences for entries named in this document (tags omitted). A change or cut given only in a name is not applied to a line headed by its entry.
UniProt C7C422: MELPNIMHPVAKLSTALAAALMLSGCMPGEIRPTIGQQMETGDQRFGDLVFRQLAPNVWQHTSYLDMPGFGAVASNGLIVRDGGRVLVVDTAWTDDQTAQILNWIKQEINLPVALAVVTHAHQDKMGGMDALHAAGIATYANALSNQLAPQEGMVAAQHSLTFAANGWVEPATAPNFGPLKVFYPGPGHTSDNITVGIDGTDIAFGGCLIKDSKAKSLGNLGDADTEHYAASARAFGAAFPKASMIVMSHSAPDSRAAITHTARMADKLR

Activity % (negative = inhibition), inactive:
CCNC(=O)[C@@H]1C[C@H](NC(=O)c2ccc(CO)o2)CN1Cc1nccs1 28.6%
CC1=C(C(=O)Nc2ccccc2)C(c2cc(C)ccc2C)N2C(CC(=O)NC(C)C)=CSC2=N1 (stereo not drawn) 12.5%
N#Cc1cccc(N2CCN(Cc3ccc(F)c(Cl)c3F)CC2)n1 1.43%
Cc1noc(C)c1-c1cc(-c2cccc3cc[nH]c23)cn2cncc12 11.6% [at 57.5 µM]
CCC(C)(C)C(=O)N1CCC(N2C(=O)CCC2C(=O)NC(C)C)CC1 (stereo not drawn) 5.87%
CN(C)[C@@H]1CN(C(=O)CCc2ccccc2)C[C@H]1CO 50.7%
O=C(CCCc1nc2ccccc2s1)N1CCc2nc3cc(-c4ccccc4)[nH]n3c(=O)c2C1 60.1%
OCCN1CCN(c2ccc(-c3nc(-c4cccc(C(F)(F)F)c4)no3)cn2)CC1 13.3%
Cc1nnc([C@H]2CCN(Cc3ncc[nH]3)C2)o1 -0.788% [at 77.1 µM]
Cc1c(C(=O)N(C)Cc2cc(-c3cccnc3)no2)oc2c(F)cccc12 2.92%
COc1cccc(N2C(=O)NC(=NC3CCCCC3)C23CCCN([S+](=O)([O-])c2cccs2)C3)c1 (stereo not drawn) -1.53%
O=C(c1ccsc1)N1CCC2(CC1)CN(c1ccncn1)CC2CO (stereo not drawn) 0.264%
O=C1CCCCC(Cc2cccnc2)(C(=O)NCC2CC2)N1 (stereo not drawn) 0.264%
COCCOCc1nc(C2CCCN2C(=O)Cc2cccc(F)c2)no1 (stereo not drawn) -2.95%
O[C@H]1CC[C@@H](Cc2cc(-c3ccc(F)cc3)on2)O[C@@H]1CNC1CCCCC1 -3.81% [at 57.5 µM]
Cc1[nH]c2ccccc2c1CN1CCc2nc(N3CCN(C)CC3)[nH]c(=O)c2CC1 -0.788%
N#Cc1cccc(CN2CC[C@H](c3nc4ccccc4o3)C2)c1 -0.362% [at 57.5 µM]
COCc1nc(NCCCN2CCOCC2)cc(C2CC(N)C2)n1 (stereo not drawn) 2.39%
c1cc(-c2nc(C3CCOC3)nn2C2CCCCC2)co1 (stereo not drawn) 17.7%
COc1ccc(-c2nc3cc(C(=O)NCC(C)C)ccc3o2)cn1 4.69% [at 57.5 µM]
COC1C(=O)N(CC2CC2)C12CCN(S(=O)(=O)c1ccc3c(c1)OCCO3)CC2 (stereo not drawn) -0.845%
CC(C)C1=NOC2(CCCN(C(=O)c3ccccn3)C2)C1 (stereo not drawn) 2.47% [at 57.5 µM]
O=C(c1cnc2c(c1)CCCC2)N1CCCn2nc(CO)cc2C1 6.35%
CN(Cc1cccc(C(F)(F)F)c1)Cc1nc(-c2ccccc2)no1 17.1%
O=C(NC1CCCCCC1)c1nnn2cc(-c3ccccc3)[nH]c(=O)c12 8.42%
O=C1CCN(Cc2cccc(F)c2)CCCCCCN1 2.42%
Cc1nnc(-c2cc(-c3cnn(C)c3)ccn2)n1-c1ccccc1 3.31% [at 57.5 µM]
C=CCCC(=O)N1c2cccc3c2[C@@H](C[C@H]1C(N)=O)CN(c1ccccc1)C3=O 8.38% [at 16.1 µM]
CC1(C(=O)N2CCC(c3ccccc3)CC2)CCc2cnc(Nc3ccncc3)nc21 (stereo not drawn) 24.2% [at 57.5 µM]
CCn1c(CN2CCN(c3nc(C)cnc3C)CC2)nnc1C1CC(N)C1 (stereo not drawn) -4.23%
COC(=O)[C@H](CC1CCCCC1)NC(=O)[C@@H]1CN(C(=O)c2ccc(N(C)C)cc2)CCN1C(C)=O 11.2%
O=C(NCCN1C(=O)C2(CCCCC2)C1c1ccccc1)NCc1ccccc1 (stereo not drawn) -0.527%
CCc1noc(-c2cn(C3CCN(C(=O)COc4ccccc4)C3)nn2)n1 (stereo not drawn) 3.62%
COc1cccc([C@@H]2CCN(Cc3cn[nH]c3C(=O)O)C[C@H]2O)c1 0.625%
COc1cccc(CN2CC[C@@](O)(C3CC3)[C@H](C)C2)c1OC 2.38%
Cc1cccc(O[C@H]2COCCN(c3nc4ccccc4o3)C2)n1 14.5% [at 57.5 µM]
c1ccc(CNc2ncc(-c3ccc(N4CCOCC4)cc3)c3c2OCC3)cc1 4.66% [at 57.5 µM]
COc1cccc(S(=O)(=O)N2CCC(c3noc(-c4ccccn4)n3)C2)c1 (stereo not drawn) -5.96%
C[C@@]12CO[C@@H](Cc3ccccc3)O[C@@H]1CC[C@]1(C)C2CC[C@@H](O)[C@H]1CC(=O)NCc1cc(F)cc(F)c1 (stereo partly drawn) 2.51%
Cc1nnc(N2CCC3(CCC(=O)N(CCCN(C)C)C3)CC2)c2ccccc12 -0.416%
CNC(=O)C1C(=O)NCC12CCN(C(=O)c1ccc(C(C)(C)C)cc1)CC2 (stereo not drawn) 1.45%
CN(C)c1cc(N2CCCC(NC(=O)c3cccnc3)C2)ncn1 (stereo not drawn) 8.65%
COc1cccc(CN2CC3(C2)NC(=O)c2ccccc2O3)c1 1.79% [at 57.5 µM]
CCCC[S+](=O)([O-])N1CC(=O)N(CCCc2ccccc2)CC(O)C1 (stereo not drawn) 0.416%
CN(Cc1cc(C[C@@H]2C[C@H](NC(=O)C(C)(C)C)C2(C)C)no1)c1ccccc1 -0.493% [at 57.5 µM]
c1cc2c(cc1OC1CNC1)OCO2 10.2% [at 77.1 µM]
CC1(C)[C@H](Cc2cc(CN3CCCCC3)on2)C[C@@H]1N 32% [at 77.1 µM]
CCn1c(CO)nnc1C1CC(NC(=O)c2sccc2N)C1 (stereo not drawn) 55.6%
CN(C)C[C@@H]1CN(Cc2ccccn2)C[C@H]1NC(=O)c1n[nH]c2ccccc12 7.43%
CCOc1ccccc1C(=O)NC1CCN(c2cc(C)cc(C)c2)C1=O (stereo not drawn) -5.43%
O=C1NC(=NC2CCCC2)C2(CCCN([S+](=O)([O-])c3ccccc3)C2)N1c1cccnc1 (stereo not drawn) -2.44%
CCN(CC)Cc1cnc2c(C(=O)N3CCCN4CCC[C@H]4C3)cnn2c1 -4.23%
Cc1c(C(C)NC(=O)c2ccc(=O)[nH]c2)cnn1-c1cccc2ccccc12 (stereo not drawn) 4.53%
CCOC(=O)C1CCN(C(=O)C2COC3(CCCCC3)N2C(=O)c2cc(F)cc(F)c2)CC1 (stereo not drawn) -0.153%
COCCn1c(COc2c(F)ccc(Cl)c2F)nnc1C1CC(N)C1 (stereo not drawn) -2.79%
CCc1nc(NCc2cn[nH]c2-c2ccc(Cl)cc2)c2cnn(C)c2n1 -2.24%
O[C@H]1CC[C@@H](Cc2cc(CN3CCCCC3)on2)O[C@@H]1CNCc1cccnc1 -2.83% [at 57.5 µM]
COc1cccc(CN2Cc3nc(-c4cnn(C)c4)ccc3OCC2=O)c1 5.31% [at 57.5 µM]
c1ccc(-c2n[nH]c(CC3CCNC3)n2)cc1 (stereo not drawn) -14.8%
CCCC1(C2CCN(C(=O)Cc3ccc(OC)cc3)CC2)NC(=O)N(CCc2cccs2)C1=O (stereo not drawn) 2.53%
Cc1cc(=O)n(CC(=O)Nc2ccc3c(c2)OCCO3)c(N2CCc3ccccc3C2)n1 14.2%
Cc1noc2c(-c3cccc(CO)c3)cc(-c3cccc(C(F)(F)F)c3)nc12 28.7% [at 57.5 µM]
Cc1cc(C[C@@H]2COC[C@@H]2NC(=O)c2ccc(Oc3ccccc3)o2)on1 5.18%
O=C(NCc1ccccc1)C1COC2(CCN(C(=O)c3cccs3)CC2)N1C(=O)c1ccco1 (stereo not drawn) -0.388%
CCOc1ccc(CN2CCCC(CCC(=O)Nc3ccccc3F)C2)cc1CO (stereo not drawn) -0.193%
COC(=O)[C@@H]1C[C@H](NC(=O)c2c(Cl)cccc2Cl)CN1C 10.2%
Cc1noc(C)c1S(=O)(=O)N1CCCOCCNC(=O)[C@@H]2CCC[C@@H]21 -1.51%
COCCOCC(=O)N1CCC(N2C[C@H](OC)[C@@H]2c2cccnc2)CC1 7.72%
CCc1nc(C)sc1C(=O)N1C[C@@H](CN2CCCN(C)CC2)[C@@H](CO)C1 -11.8%
CCC1(C(=O)O)CCCCC(=O)N1 (stereo not drawn) 25.8%
COCc1nc(C2CC(NC(=O)CN3C(=O)CN(C)C3=O)C2)cc(=O)[nH]1 (stereo not drawn) 3%
CCn1ncc(CN2CCCC23CCN(c2ccc(C(F)(F)F)cn2)CC3)c1C 5.27%
O=C1CC(c2ccccc2)NCCCCCCN1 (stereo not drawn) -4.45%
O=c1cc(N2CCOCC2)oc2c(NCC3CCOCC3)nccc12 20.6% [at 57.5 µM]
CCC(=O)N1CCc2c(C(=O)N3CCCCC3)cccc21 6.68%
CC1(C)[C@H]2CC[C@@H](CNC(=O)c3ccc4ccccc4n3)[C@@H]1C2 8.22% [at 57.5 µM]
C=CCS(=O)(=O)N1C[C@H]2OC(=O)N(CCc3cccc(Cl)c3)[C@H]2C1 -0.273%
COC1CCC(C(=O)N2CCC3(CC2)OC(=O)N(CCOc2ccccc2)C3(C)c2cccnc2)CC1 (stereo not drawn) 3.83%
Cc1nc(C(=O)N2CC[C@H](NC(=O)c3snnc3C)C[C@H]2C(=O)N[C@H](CC(C)C)C(N)=O)cs1 1.66%
Cc1nc(C2CC(O)C2)cc(N2CCN(c3nc4ccccc4s3)CC2)n1 (stereo not drawn) 9.86%
O=C(Cc1ccccn1)N1CCCC(C(=O)N2CCC(N3CCCC3=O)CC2)C1 (stereo not drawn) 1.86%
Cc1cc(C)cc(NC(=O)Cn2c(-c3cnccn3)nc(C)c(C)c2=O)c1 -0.0371%
CCC(CC)C(=O)N1CCC2(CC1)C(=O)N(C)c1ccccc12 2.54%

Three consecutive compounds from above, for reference:
Activity % (negative = inhibition), inactive:
O=C(c1cnc2c(c1)CCCC2)N1CCCn2nc(CO)cc2C1 6.35%
CN(Cc1cccc(C(F)(F)F)c1)Cc1nc(-c2ccccc2)no1 17.1%
O=C(NC1CCCCCC1)c1nnn2cc(-c3ccccc3)[nH]c(=O)c12 8.42%

From PubChem BioAssay AID1794845 (National Center for Advancing Translational Sciences (NCATS), 2023)
